The source of these data is patent US11590129B2, “Combination therapy with an antitumor alkaloid” (PHARMA MAR, S.A., priority 2010, dated 2023).

SMILES strings stand for the structures.

This assay deals with MDA-MB-231 human breast adenocarcinoma cell line. Description: cells. The following applies: MDA-MB-231, 72 h. The protocol: a. […] Briefly, cells were harvested and seeded in 96 well microtiter plates at a density of 5,000 cells in 150 μL of culture medium and incubated for 24 hours in drug-free medium before treatment with vehicle alone or test compounds for 72 h.
The cytotoxic effect was measured by the MTT reduction assay, in which 3-(4,5-Dimethylthiazol-2-yl)-2,5-diphenyltetrazolium bromide, a tetrazole, which is reduced to purple formazan in the mitochondria of living cells, was used. MTT (50 μL of 1 mg/mL stock solution) was added to the wells and incubated for 8 hours at 37° C. until formazan crystals were formed. After gently removing the culture medium, DMSO was added to dissolve the insoluble purple formazan product into a colored solution. […] Results were expressed as percentage of control cell growth.
b. In a second set of assays, A549 human tumor cells were incubated with PM01183 in combination with each of the agents mentioned above.
As a visual aid, response values were plotted on a scatter plot with dose ratios given on the x-axis and % response values on the y-axis. […] In cases where response values at the two endpoints were approximately equivalent, points lying above or below this predicted line of additivity could be interpreted as representing antagonistic or synergistic drug interaction, respectively. […]

Turning to `CC/C(=C(\c1ccccc1)c1ccc(OCCN(C)C)cc1)c1ccccc1` [Tamoxifen, tamoxifen], the IC50 turned out to be 13 µM.
